Source: patent US11077196B2, “Abuse-deterrent pharmaceutical composition” (priority 2016, dated 2021)

Tests used:
[1] = tested on: laccase from Myceliophthora thermophila (MtL); test: Oxygen measurement of laccase catalysed oxidation of opioids (MtL); type: biochemical; details: MtL 10 U/ml, substrate 2 mg/ml, distilled water, room temperature, optical oxygen sensor
[2] = tested on: laccase from Trametes villosa (TvL); test: Oxygen measurement of laccase catalysed oxidation of opioids (TvL); type: biochemical; details: TvL 10 U/ml, substrate 2 mg/ml, distilled water, room temperature, optical oxygen sensor
[3] = tested on: laccase from Myceliophthora thermophila; details: 2 mg/ml morphine in distilled water, MtL 78.3 U/ml, after 30 minutes
[4] = tested on: laccase; test: Thin layer chromatography of enzymatic conversion; type: biochemical; details: samples at 2, 10, 30, 60, 120 minutes of enzymatic reaction

CN1CC[C@]23c4c5ccc(O)c4O[C@H]2[C@@H](O)C=C[C@H]3[C@H]1C5 [morphine, 4,5[alpha]-epoxy-17-methyl-7-morphinen-3,6[alpha]-diol]
oxygen concentration in solution (laccase oxidation of the opioid) [1]: clear decrease in the oxygen concentration | oxygen concentration in solution (laccase oxidation of the opioid) [2]: clear decrease in the oxygen concentration | morphine converted (GC-MS) [3]: approx. 60% | time after which the reference dot disappears on TLC (all converted) [4]: 30 min
